These are yes or no findings as the source states them, for the method shown. Binding seen in cells or lysates may run through a third protein.
Biological target: Flag-tagged SHMT2 K64R (shRNA-resistant) (human) (UniProt P34897)
Experiment: co-IP; stable SHMT2-knockdown HCT116 and DLD-1 cells re-expressing shRNA-resistant Flag-SHMT2α or K64R; immunoprecipitation with the indicated antibodies

Sequences of proteins named here, by UniProt entry; tags and fusion partners are left off. A change or cut given only in a name is not applied to a line headed by its entry.
UniProt P34897: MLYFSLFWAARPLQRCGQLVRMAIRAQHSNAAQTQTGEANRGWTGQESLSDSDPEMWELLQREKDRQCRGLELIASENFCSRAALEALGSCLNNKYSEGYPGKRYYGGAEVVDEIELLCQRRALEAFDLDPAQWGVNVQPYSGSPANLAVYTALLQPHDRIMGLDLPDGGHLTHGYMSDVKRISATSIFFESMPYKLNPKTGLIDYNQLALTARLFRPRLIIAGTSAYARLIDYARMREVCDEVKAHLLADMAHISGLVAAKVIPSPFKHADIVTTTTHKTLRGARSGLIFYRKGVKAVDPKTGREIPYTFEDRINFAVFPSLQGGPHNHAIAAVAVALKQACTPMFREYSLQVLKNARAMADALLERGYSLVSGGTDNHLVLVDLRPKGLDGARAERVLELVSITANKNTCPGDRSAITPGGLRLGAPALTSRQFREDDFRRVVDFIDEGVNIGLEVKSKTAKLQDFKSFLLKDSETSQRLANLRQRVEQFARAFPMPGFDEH
UniProt P35222: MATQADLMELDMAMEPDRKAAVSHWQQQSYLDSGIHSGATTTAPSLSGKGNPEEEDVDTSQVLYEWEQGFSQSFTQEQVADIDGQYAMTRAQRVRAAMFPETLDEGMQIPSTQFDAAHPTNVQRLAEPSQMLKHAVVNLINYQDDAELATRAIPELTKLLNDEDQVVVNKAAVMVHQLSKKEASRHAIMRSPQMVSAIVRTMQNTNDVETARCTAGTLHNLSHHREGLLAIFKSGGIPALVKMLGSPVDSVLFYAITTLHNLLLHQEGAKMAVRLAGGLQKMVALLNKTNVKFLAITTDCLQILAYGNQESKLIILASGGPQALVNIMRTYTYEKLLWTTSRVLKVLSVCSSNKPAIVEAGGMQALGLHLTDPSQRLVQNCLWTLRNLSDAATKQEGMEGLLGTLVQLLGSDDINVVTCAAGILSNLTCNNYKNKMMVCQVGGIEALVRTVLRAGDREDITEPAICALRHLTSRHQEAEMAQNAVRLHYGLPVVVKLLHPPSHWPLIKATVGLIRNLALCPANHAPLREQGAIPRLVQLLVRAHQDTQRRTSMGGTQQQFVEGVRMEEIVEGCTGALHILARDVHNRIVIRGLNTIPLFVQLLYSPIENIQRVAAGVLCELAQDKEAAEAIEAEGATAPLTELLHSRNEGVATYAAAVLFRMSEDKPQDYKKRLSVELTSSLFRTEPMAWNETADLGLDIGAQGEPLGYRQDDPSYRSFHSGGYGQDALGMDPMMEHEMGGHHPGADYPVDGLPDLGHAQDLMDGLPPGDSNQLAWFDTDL

binding: no binding
Substance: β-catenin (from UniProt P35222 1-781)

Source: PMC7806468
